Experimental data taken from publication doi:10.1101/2021.06.23.449546.
Results are given in words; binding and its absence hold for the method and conditions named. In cells and extracts the contact can be indirect. Some binding calls cover weakened binding; strength is not graded here.

Amino acid sequences for entries named in this document (tags omitted).
UniProt P63015: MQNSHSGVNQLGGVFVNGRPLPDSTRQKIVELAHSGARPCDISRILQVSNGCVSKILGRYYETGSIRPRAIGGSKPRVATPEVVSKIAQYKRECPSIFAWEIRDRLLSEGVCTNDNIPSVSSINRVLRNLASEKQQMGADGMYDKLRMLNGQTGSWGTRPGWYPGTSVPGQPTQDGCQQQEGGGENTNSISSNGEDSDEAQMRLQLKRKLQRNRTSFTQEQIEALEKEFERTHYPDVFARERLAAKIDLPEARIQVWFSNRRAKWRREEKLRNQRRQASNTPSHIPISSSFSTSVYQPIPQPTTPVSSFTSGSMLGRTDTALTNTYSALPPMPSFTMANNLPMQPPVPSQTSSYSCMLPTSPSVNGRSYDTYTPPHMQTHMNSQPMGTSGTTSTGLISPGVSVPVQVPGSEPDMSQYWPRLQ
UniProt P97305: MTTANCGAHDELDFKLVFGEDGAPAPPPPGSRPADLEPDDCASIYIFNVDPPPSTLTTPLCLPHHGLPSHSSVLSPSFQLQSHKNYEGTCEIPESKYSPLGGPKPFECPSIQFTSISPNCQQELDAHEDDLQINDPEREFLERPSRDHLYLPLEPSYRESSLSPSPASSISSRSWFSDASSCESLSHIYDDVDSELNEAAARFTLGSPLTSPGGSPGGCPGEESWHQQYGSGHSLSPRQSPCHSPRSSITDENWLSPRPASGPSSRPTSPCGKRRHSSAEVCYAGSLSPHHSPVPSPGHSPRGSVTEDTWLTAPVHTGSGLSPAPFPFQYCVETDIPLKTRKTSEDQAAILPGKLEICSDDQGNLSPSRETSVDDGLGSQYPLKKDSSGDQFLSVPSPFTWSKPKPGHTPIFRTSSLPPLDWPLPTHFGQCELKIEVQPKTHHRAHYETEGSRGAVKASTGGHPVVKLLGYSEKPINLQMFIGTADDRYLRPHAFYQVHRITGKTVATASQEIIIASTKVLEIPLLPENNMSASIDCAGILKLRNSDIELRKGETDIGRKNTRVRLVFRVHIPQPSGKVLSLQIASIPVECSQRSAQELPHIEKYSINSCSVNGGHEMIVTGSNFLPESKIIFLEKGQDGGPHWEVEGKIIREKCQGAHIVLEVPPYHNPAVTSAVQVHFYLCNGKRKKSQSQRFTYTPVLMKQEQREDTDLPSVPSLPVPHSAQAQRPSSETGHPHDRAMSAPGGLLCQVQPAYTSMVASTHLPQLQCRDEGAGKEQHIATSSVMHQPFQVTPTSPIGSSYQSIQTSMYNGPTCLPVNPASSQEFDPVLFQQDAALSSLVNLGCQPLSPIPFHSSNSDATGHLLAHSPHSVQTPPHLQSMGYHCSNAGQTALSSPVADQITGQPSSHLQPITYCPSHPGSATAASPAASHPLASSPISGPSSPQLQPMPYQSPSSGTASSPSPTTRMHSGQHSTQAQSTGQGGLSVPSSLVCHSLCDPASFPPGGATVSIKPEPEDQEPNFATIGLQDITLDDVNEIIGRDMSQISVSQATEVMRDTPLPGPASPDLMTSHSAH

Target: PAX6 (mouse (endogenous in E14.5 brain or in EBs from mouse ES cells)) (UniProt P63015)
Assay: co-IP

NFAT4 (from UniProt P97305 1-1075) was tested. Which binding did it give?
The binding was “binds”.
